The reference is the same well before dosing, and untreated signal decays as well.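 Fibroblast labels name human fibroblasts: mostly primary ones from tissues such as uterus (C12385, HUF), lung (H6013), bone (Hs27A), adrenal (HADF) and skin (WS1), plus mammary HMF and breast cancer-associated Hs343T. The cancer cells are basal-like or mesenchymal-like triple-negative breast cancer lines. The paper calls a changed response a hit when it shifts by more than 3x the replicate standard deviation. The tissue of the other fibroblasts is not given here.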
Tested on: BT20
Assay: relative JC-1 red fluorescence (viability) vs pre-drug, coculture with fibroblast (fraction); higher = more viable cancer cells
Method: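 JC-1 labelled TNBC cells cocultured 1:1 (1,500 cells each) with CellTrace Violet stained primary or stromal fibroblasts in 384-well plates in FluoroBrite medium, treated with one of 42 anticancer drugs at 0.1, 1, 10 or 100 uM. JC-1 red fluorescence (mitochondrial integrity in cancer cells only) was read by plate reader every 8 h for 72 h. Values are normalised to each well's pre-drug value. The stock of one drug was tenfold lower, so its dose labels may be too high.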

Nc1ccn([C@@H]2O[C@H](CO)[C@@H](O)C2(F)F)c(=O)n1 [Gemcitabine]
relative JC-1 red fluorescence
Conditions | 8 h | 16 h | 24 h | 32 h | 40 h | 48 h | 56 h | 64 h | 72 h
0.1 µM, coculture fibroblast: C12385 | 0.916 | 0.855 | 0.765 | 0.711 | 0.652 | 0.615 | 0.585 | 0.557 | 0.546
0.1 µM, coculture fibroblast: H6013 | 0.87 | 0.921 | 0.836 | 0.883 | 0.85 | 0.836 | 0.848 | 0.843 | 0.836
0.1 µM, coculture fibroblast: H6019 | 0.8856 | 0.8273 | 0.817 | 0.77 | 0.73 | 0.72 | 0.694 | 0.675 | 0.664
0.1 µM, coculture fibroblast: H6076 | 0.811 | 0.903 | 0.823 | 0.78 | 0.743 | 0.719 | 0.691 | 0.692 | 0.662
0.1 µM, coculture fibroblast: H6231 | 0.785 | 0.952 | 0.823 | 0.762 | 0.707 | 0.657 | 0.629 | 0.612 | 0.575
0.1 µM, coculture fibroblast: HADF | 0.903 | 0.8548 | 0.7772 | 0.731 | 0.687 | 0.651 | 0.639 | 0.625 | 0.602
0.1 µM, coculture fibroblast: HCFa | 0.9508 | 0.831 | 0.788 | 0.715 | 0.653 | 0.605 | 0.574 | 0.554 | 0.522
0.1 µM, coculture fibroblast: HCPF | 0.772 | 0.929 | 0.845 | 0.7917 | 0.75102 | 0.703 | 0.661 | 0.639 | 0.622
0.1 µM, coculture fibroblast: HHSteC | 0.94 | 0.829 | 0.8073 | 0.729 | 0.673 | 0.641 | 0.615 | 0.592 | 0.562
0.1 µM, coculture fibroblast: HMF | 0.806 | 0.907 | 0.821 | 0.775 | 0.739 | 0.698 | 0.668 | 0.647 | 0.625
0.1 µM, coculture fibroblast: HPFa | 0.833 | 0.781 | 0.734 | 0.816 | 0.798 | 0.773 | 0.777 | 0.773 | 0.733
0.1 µM, coculture fibroblast: HUF | 0.916 | 0.801 | 0.787 | 0.726 | 0.66 | 0.607 | 0.581 | 0.555 | 0.537
0.1 µM, coculture fibroblast: Hs5 | 0.736 | 0.915 | 0.848 | 0.81 | 0.765 | 0.733 | 0.71 | 0.678 | 0.663
0.1 µM, coculture fibroblast: Hs27A | 0.862 | 0.826 | 0.795 | 0.852 | 0.813 | 0.784 | 0.819 | 0.749 | 0.803
0.1 µM, coculture fibroblast: Hs343T | 0.9978 | 0.8803 | 0.77 | 0.723 | 0.675 | 0.629 | 0.591 | 0.583 | 0.558
0.1 µM, coculture fibroblast: WS1 | 0.873 | 0.783 | 0.727 | 0.654 | 0.605 | 0.576 | 0.544 | 0.515 | 0.51
1 µM, coculture fibroblast: C12385 | 0.894 | 0.804 | 0.774 | 0.715 | 0.671 | 0.647 | 0.629 | 0.611 | 0.596
1 µM, coculture fibroblast: H6013 | 0.907 | 0.839 | 0.823 | 0.758 | 0.697 | 0.687 | 0.698 | 0.694 | 0.694
1 µM, coculture fibroblast: H6019 | 0.8418 | 0.737 | 0.714 | 0.638 | 0.574 | 0.551 | 0.517 | 0.484 | 0.46
1 µM, coculture fibroblast: H6076 | 0.9884 | 0.8645 | 0.778 | 0.738 | 0.7 | 0.66 | 0.641 | 0.637 | 0.623
1 µM, coculture fibroblast: H6231 | 0.902 | 0.927 | 0.794 | 0.729 | 0.678 | 0.6246 | 0.5706 | 0.541 | 0.517
1 µM, coculture fibroblast: HADF | 0.95 | 0.863 | 0.877 | 0.822 | 0.792 | 0.759 | 0.752 | 0.741 | 0.724
1 µM, coculture fibroblast: HCFa | 0.888 | 0.845 | 0.811 | 0.756 | 0.732 | 0.712 | 0.699 | 0.682 | 0.655
1 µM, coculture fibroblast: HCPF | 0.893 | 0.816 | 0.777 | 0.7269 | 0.692 | 0.649 | 0.622 | 0.605 | 0.568
1 µM, coculture fibroblast: HHSteC | 0.917 | 0.847 | 0.85 | 0.78 | 0.742 | 0.716 | 0.7 | 0.667 | 0.65
1 µM, coculture fibroblast: HMF | 0.8351 | 0.839 | 0.749 | 0.688 | 0.642 | 0.597 | 0.574 | 0.555 | 0.527
1 µM, coculture fibroblast: HPFa | 0.925 | 0.872 | 0.903 | 0.829 | 0.828 | 0.801 | 0.812 | 0.799 | 0.778
1 µM, coculture fibroblast: HUF | 0.91456 | 0.8143 | 0.797 | 0.72 | 0.684 | 0.65 | 0.637 | 0.624 | 0.606
1 µM, coculture fibroblast: Hs5 | 0.866 | 0.873 | 0.807 | 0.755 | 0.731 | 0.7 | 0.677 | 0.664 | 0.646
1 µM, coculture fibroblast: Hs27A | 0.723 | 0.948 | 0.871 | 0.842 | 0.807 | 0.797 | 0.793 | 0.793 | 0.771
1 µM, coculture fibroblast: Hs343T | 0.932 | 0.827 | 0.7503 | 0.682 | 0.627 | 0.592 | 0.551 | 0.544 | 0.524
1 µM, coculture fibroblast: WS1 | 0.852 | 0.738 | 0.7116 | 0.644 | 0.6012 | 0.574 | 0.546 | 0.528 | 0.52

Reference: the supplement of paper PMC6078165
